Assay results as given in PubChem BioAssay AID485314 (National Center for Advancing Translational Sciences (NCATS), 2010).
Among all 340,000 compounds or so, about 4,500 (1.3%) were called active. Inconclusive means that the source gave no clear call. Such entries were picked first, then a sample of the others. Calls follow the shape of the dose curve; as a rule, active = well fitted inhibition curve with a large enough effect; inconclusive = small, poorly fitted or top-dose-only effect, or another doubt; inactive = no such curve, though single readings can be large or run the other way. Potencies of inconclusive entries are doubtful fits and often do not repeat.

Target: DNA polymerase beta (Homo sapiens) (UniProt P06746)
Assay: qHTS Assay for Inhibitors of DNA Polymerase Beta
Details: Pol beta primer extension/strand displacement, fluorescence kinetic; activity change, negative = inhibition: at 114 µM (top of the series)
How it was run: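 Preincubation: enzyme (10 nM) with compound, 15 min, RT. Reaction: substrate added to 50 nM final. Reads: 0 and 10 min. Analysis: normalized, Hill fit.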
% is scaled to controls: 0 for no effect and ±100 for the full control effect; potency is read from the fitted curve at half-maximal effect.

Row | SMILES | activity change, negative = inhibition | Potency
1 | Cc1c(C(=O)NCC2COc3ccccc3O2)oc2ccc(S(=O)(=O)N3CCOCC3)cc12 (stereo unspecified) | inactive: 7.97% | –
2 | COc1cccc(CSc2nc3n(n2)C(c2ccc(C(=O)O)cc2)C(C(=O)Nc2ccccc2)=C(C)N3)c1 (stereo unspecified) | – | inconclusive: 39.8 µM [inhibitor, single point]
3 | CCS(=O)(=O)N1CCC(C(=O)Oc2ccccc2OC)CC1 | – | inconclusive: 39.8 µM [inhibitor, single point]
4 | O=C(OCc1cc(=O)n2nc(-c3cccs3)sc2n1)c1ccccc1Cl | – | active: 35.5 µM
5 | CCC(C)N(C(=O)COc1ccccc1C(=O)NCc1ccccc1)C1CCS(=O)(=O)C1 (stereo unspecified) | – | inconclusive: 0.398 µM [inhibitor, full curve]
6 | Cc1cc(NS(=O)(=O)c2ccc(Nc3nc(-c4ccc(C)c(C)c4)cs3)cc2)no1 | – | inconclusive: 25.1 µM [inhibitor, full curve]
7 | Nc1c(/C=C2/C=CC(=O)C(O)=C2)c(=O)nc2sc(CC(=O)N3CCCCC3)nn12 | inconclusive: -113% [inhibitor] | –
8 | O=C(N/N=C1\CCCc2c1[nH]c1ccc([N+](=O)[O-])cc21)c1ccncc1 | – | inconclusive: 3.98 µM [inhibitor, single point]
9 | Cc1cc(C)c2nc(N3C(=O)C(O)=C(C(=O)c4ccco4)C3c3ccco3)sc2c1 (stereo unspecified) | – | active: 39.8 µM
10 | COc1cc(CO)ccc1OCc1ccc(Cl)nc1 | – | inconclusive: 89.1 µM [inhibitor, single point]
11 | CC(=O)N1CCN(c2ccccc2NC(=O)COc2cc(C)ccc2C(C)C)CC1 | – | inconclusive: 79.4 µM [inhibitor, single point]
12 | O=C(CSc1nc(=O)n(CCN2CCOCC2)c2c1CCC2)Nc1ccc(Cl)c(Cl)c1 | inactive: 2.95% | –
13 | CC(=O)Nc1ccccc1-c1nc2ccccc2n(CC(=O)Nc2cccc(C)c2C)c1=O | inactive: -28.6% | –
14 | O=C(CSc1nc2ccc(Cl)cc2[nH]1)NC1CCCC1 | – | inconclusive: 35.5 µM [inhibitor, partial curve]
15 | CCc1cc2c(cc3c(=O)n(CCCC(=O)NCc4cccc(Br)c4)ncn32)s1 | inactive: 4.3% | –
16 | CCCn1c(CCC(=O)O)ccc1-c1cccs1 | – | inconclusive: 89.1 µM [inhibitor, single point]
17 | COc1ccc(N2CCN(S(=O)(=O)c3ccc(-c4coc(C)n4)cc3)CC2)cc1 | – | active: 31.6 µM
18 | CCOc1ccc(CC(=O)Nc2c(C(=O)c3ccccc3)oc3ccc(Cl)cc23)cc1OCC | inactive: 25.7% | –
19 | COc1cc2c(C#N)c(N3CCCC3)nc(N)c2c(N)n1 | – | inconclusive: 22.4 µM [inhibitor, full curve]
20 | CCOC(=O)Cn1nc(-c2ccccc2)c2cnc3ccc(C)cc3c21 | – | inconclusive: 7.94 µM [inhibitor, full curve]
21 | COc1ccc(C(=O)CSc2cc(C)nc(SCC(=O)c3ccc(C)cc3)n2)cc1 | – | inconclusive: 89.1 µM [inhibitor, single point]
22 | Cc1ccc2c(=O)cc(C(=O)N(Cc3ccc(C(C)(C)C)cc3)C3CCS(=O)(=O)C3)oc2c1 (stereo unspecified) | inactive: -25.1% | –

Row | SMILES | activity change, negative = inhibition | Potency
23 | COc1ccc2c(c1)c(C(=O)N/N=C/c1cccc(Br)c1)c(C)n2C | – | inconclusive: 17.8 µM [inhibitor, partial curve, poor fit]
24 | CCc1ccccc1NC(=O)CCS(=O)(=O)c1ccc(OC)cc1 | – | active: 35.5 µM
25 | CNC(=S)N1CCN(c2nc3ccccc3s2)CC1 | – | inconclusive: 3.98 µM [inhibitor, single point]
26 | CC1(C)OC(=O)C(=Cc2ccc(-c3ccc(Cl)c(C(=O)O)c3)o2)C(=O)O1 | – | inconclusive: 12.6 µM [inhibitor, partial curve]
27 | O=C(CCS(=O)(=O)c1ccc(Br)cc1)NCCc1ccc(Cl)cc1 | – | active: 39.8 µM
28 | COc1ccccc1NC(=O)Nc1nnc(CC(=O)Nc2ccccc2C)s1 | – | inconclusive: 39.8 µM [inhibitor, partial curve, poor fit]
29 | C=C(C)C1CC=C(C)/C(=N\NC(=O)CCC(=O)Nc2ccc(C)c(C)c2)C1 (stereo unspecified) | inconclusive: -51.8% [inhibitor] | –
30 | Cc1ccc(S(=O)(=O)n2nc(OC(=O)c3ccccc3F)cc2N)cc1 | inactive: 9.24% | –
31 | O=S(=O)(NCCc1csc(-c2ccc(C(F)(F)F)cc2)n1)c1ccc2c(c1)OCCO2 | – | inconclusive: 79.4 µM [inhibitor, single point]
32 | O=C(CSc1nc2ccccc2n1Cc1cccc(F)c1)NCc1ccccc1 | inactive: -8.53% | –
33 | Cc1ccc(C(=O)O/N=C(\N)c2ccc(Br)cc2)cc1 | – | inconclusive: 12.6 µM [inhibitor, partial curve]
34 | COc1ccc(Br)cc1Cn1nnc(C(=O)Nc2cccc(SC)c2)c1N | – | inconclusive: 89.1 µM [inhibitor, single point]
35 | O=C(N=Nc1c(O)[nH]c2ccccc12)c1cc(-c2cccs2)[nH]n1 | inconclusive: -109% [inhibitor] | –
36 | Cc1cc(C)nc(NC(=NCCc2c[nH]c3ccccc23)NC(=O)Nc2ccc(Cl)c(Cl)c2)n1 | – | inconclusive: 22.4 µM [inhibitor, single point]
37 | Nc1c(-c2ccccc2)c(CN2CCOCC2)nn1-c1ccc(C(=O)O)cc1 | – | inconclusive: 25.1 µM [inhibitor, single point]
38 | O=C(O)c1cc(-c2c[nH]c3ccccc23)nc2cc3ccccc3cc12 | inactive: 29% | –
39 | COc1ccc(-n2nc3c(N4CCCC(C(=O)NCc5ccccc5C)C4)nnc(C)c3c2C)cc1 (stereo unspecified) | – | inconclusive: 89.1 µM [inhibitor, single point]
40 | CSc1c(CC(=O)Nc2ccccc2)n(C)c2ccccc12 | – | inconclusive: 3.16 µM [inhibitor, partial curve, poor fit]
41 | Nc1ccc(C(=O)OC2CCOC2=O)cc1[N+](=O)[O-] (stereo unspecified) | – | inconclusive: 63.1 µM [inhibitor, partial curve, poor fit]
42 | CCOC(=O)c1cc(-c2ccco2)nc2c1c(C)nn2CCC#N | inactive: -0.543% | –
43 | CN1C(=O)C2(c3ccccc31)c1c(oc3ccccc3c1=O)C(=O)N2CCO (stereo unspecified) | – | inconclusive: 89.1 µM [inhibitor, single point]
44 | CCCCC(C)(O)C/C=C/[C@H]1[C@H](O)CC(=O)[C@@H]1CCCCCCC(=O)OC (stereo partly specified) | – | inconclusive: 20 µM [inhibitor, full curve]

Row | SMILES | activity change, negative = inhibition | Potency
45 | CC(=O)Nc1ccc2nc(-c3ccccc3)cn2c1 | – | inconclusive: 31.6 µM [inhibitor, single point]
46 | Cc1ccc(NC(=O)Cc2ccc(-n3cccc3)cc2)c(C)c1 | – | inconclusive: 35.5 µM [inhibitor, partial curve]
47 | O=C(O)CN1C(=O)/C(=C\c2cc(Br)ccc2OCc2ccc(Cl)cc2)SC1=S | – | inconclusive: 70.8 µM [inhibitor, single point]
48 | CCC1(O)CC2CN(CCc3c([nH]c4ccccc34)[C@@](C(=O)OC)(c3cc4c(cc3OC)N(C)C3[C@]45CCN4CC=C[C@@](CC)([C@@H](OC(C)=O)[C@]3(O)C(=O)OC)[C@H]45)C2)C1 (stereo partly specified) | inactive: 11.1% [at 57.1 µM] | –
49 | Cc1nc2ccccc2c2oc(C(=O)NCc3ccc4c(c3)OCO4)cc12 | – | inconclusive: 35.5 µM [inhibitor, single point]
50 | CC1CCCc2sc3ncn(N)c(=N)c3c21 (stereo unspecified) | – | inconclusive: 17.8 µM [inhibitor, single point]
51 | CC1=C(C#N)c2nc(N)c(C#N)c(C)c2/C1=C\c1ccc(-c2ccccc2C(=O)O)o1 | – | active: 10 µM
52 | CCOc1ccc(NC(=O)CSc2oc(-c3ccco3)nc2S(=O)(=O)c2ccc(Cl)cc2)cc1 | – | inconclusive: 7.94 µM [inhibitor, full curve]
53 | COC(=O)Cn1c(O)c(N=NC(=O)CNC(=O)COc2cccc(C)c2)c2ccccc21 | inactive: 0.952% | –
54 | CC(CCc1ccccc1)NC(=O)Cn1ncc2c3ccccc3n(Cc3cccc(Cl)c3)c2c1=O (stereo unspecified) | – | active: 17.8 µM
55 | CCN(CC)S(=O)(=O)c1ccc(OCC(=O)NC(=O)c2ccccc2OC)c([N+](=O)[O-])c1 | – | inconclusive: 89.1 µM [inhibitor, single point]
56 | FC(F)(F)c1cnc(Oc2ccccc2-c2nnc(-c3ccc(Cl)cc3)o2)c(Cl)c1 | – | inconclusive: 2.82 µM [inhibitor, partial curve, poor fit]
57 | CN(C)S(=O)(=O)N(CC(=O)Nc1ccccc1C(F)(F)F)c1ccccc1 | – | inconclusive: 31.6 µM [inhibitor, full curve]
58 | COc1ccc(-n2cnnc2SCC(=O)N2CCN(c3ccccc3)CC2)cc1 | – | inconclusive: 89.1 µM [inhibitor, single point]
59 | Cc1cccc2c(C(=O)n3cccn3)cc(-c3ccccc3Cl)nc12 | – | inconclusive: 31.6 µM [inhibitor, full curve]
60 | Cc1sc2ncnc(SCC(=O)NC(=O)c3cccn3C)c2c1C | – | inconclusive: 89.1 µM [inhibitor, single point]
61 | CCCOC(=O)Nc1nc(-c2ccc(C)cc2)c(C)s1 | – | inconclusive: 0.141 µM [inhibitor, full curve, poor fit]
62 | CCOC(=O)c1cc(-c2ccc(OC)cc2)n(CCC(=O)NC2CCC(C)CC2)c1C (stereo unspecified) | inactive: 25.3% | –
63 | O=C(Nn1cnnc1)c1cc2c(s1)CCCCC2 | – | inconclusive: 28.2 µM [inhibitor, partial curve]
64 | COc1ccc(C(=O)N2CC=C(c3ccccc3)CC2)cc1S(=O)(=O)N1CCOCC1 | – | inconclusive: 17.8 µM [inhibitor, full curve, poor fit]
65 | CCOC(=O)c1[nH]c2c(c1C)C(=O)CC(c1ccco1)C2 (stereo unspecified) | – | active: 28.2 µM
66 | Cc1ccc2nc(C(F)(F)F)c(C#N)c(N)c2c1 | – | inconclusive: 89.1 µM [inhibitor, single point]
